This passage reports binding signal results from PMC7819943, “Rice protein-binding microarrays: a tool to detect cis-acting elements near promoter regions in rice”.

The list shows a part of the results.

The target in this test is T1, OsSMF1 (Oryza sativa, UniProt Q6ZLB0 1-436).
T1 sequence: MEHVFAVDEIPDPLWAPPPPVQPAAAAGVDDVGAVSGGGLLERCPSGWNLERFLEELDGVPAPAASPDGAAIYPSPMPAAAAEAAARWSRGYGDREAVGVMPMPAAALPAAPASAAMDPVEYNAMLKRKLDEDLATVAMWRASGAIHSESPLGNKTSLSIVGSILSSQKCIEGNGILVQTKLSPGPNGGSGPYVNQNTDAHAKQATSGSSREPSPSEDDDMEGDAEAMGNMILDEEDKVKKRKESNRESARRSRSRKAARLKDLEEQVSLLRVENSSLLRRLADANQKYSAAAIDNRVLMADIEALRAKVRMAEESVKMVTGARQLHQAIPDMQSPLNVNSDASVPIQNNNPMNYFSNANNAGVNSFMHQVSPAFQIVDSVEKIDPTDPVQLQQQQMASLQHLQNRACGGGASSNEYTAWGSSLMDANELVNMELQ
Description: protein-binding microarray (RPBM); PBS, 2% BSA, 51.3 ng/ul salmon testes DNA, 50 uM zinc acetate, 200 nM TF, 25 C, 1 h; high values mean tight binding. The following applies: protein: recombinant; tags: N-terminal polyhistidine and DsRed monomer fusion (pET32a); chain copies: 2; label: CyDye5-dUTP incorporated in the synthesized complementary strand; 3' TTTTT single-stranded linker to array surface; dsDNA, one strand shown. The method, boiled down:
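The binding signal is fluorescence intensity per array feature (arbitrary units). Readings came from an Axon 4000B scanner after a washed, 2% BSA-blocked, double-stranded custom Agilent array had been incubated for 1 h at 25 °C with 200 nM protein and 50 µM zinc acetate. The protein was a Ni–NTA-purified transcription factor fused N-terminally to polyhistidine and DsRed, expressed in E. coli BL21-CodonPlus.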
Take “GTAGATTCAAACTTTATCCGAAATAACTGGTGGATATTTGCGGAGTCACCTAGTGCAG”: the binding signal is 4140 fluorescence intensity (a.u.).
As for “AGAGCCGCTCCGGTAGAGACACGTGTGCCGGAAGCAACGGCGGAGTCACCTAGTGCAG”, the binding signal is 8710 fluorescence intensity (a.u.).
To “TCGAGATCCCTAAACTTGCTTTATTGTATCATCCCGGTCTCGGAGTCACCTAGTGCAG” belongs 3750 fluorescence intensity (a.u.); to “AGCCACACACGCACGCCGGCCACGATAACCCATCCTAGCACGGAGTCACCTAGTGCAG”, 3370 fluorescence intensity (a.u.).
Regarding “AAGTACGTATGTGTTGTAAGCGTCTACATTTGTAACGTGTCGGAGTCACCTAGTGCAG”, the binding signal is 3770 fluorescence intensity (a.u.).
Then “TGTTTCTGCTGGGATGGTTCAGTGGGGTGGAATGCCAGCTCGGAGTCACCTAGTGCAG”, with 3720 fluorescence intensity (a.u.); and “ACAGTGATTTGTATCTTTGTCAGCACTATACATGAAAATACGGAGTCACCTAGTGCAG”, with 3220 fluorescence intensity (a.u.); and “AAATGGCTGCTGCTCGTCGCCACGTGCTCCGGGTAAACCCCGGAGTCACCTAGTGCAG”, with 6440 fluorescence intensity (a.u.).
To “ATCTCATGAGTTAACCCCGGTCAATTCATCTACTTCGACTCGGAGTCACCTAGTGCAG” belongs 7310 fluorescence intensity (a.u.); to “GGCTGTTTGAGAAGGTGATGTCACGAAGCAGGGTCTGAGGCGGAGTCACCTAGTGCAG”, 5600 fluorescence intensity (a.u.).
On to “CGATCCCTGGGCAGCGTGGTTGATTTGCCTCCACCACTGGCGGAGTCACCTAGTGCAG”, for which the binding signal is 20400 fluorescence intensity (a.u.).
To “GGTCTCACGGGCTCACGGTGACGGATGCGATTTTATGCCACGGAGTCACCTAGTGCAG” belongs 5880 fluorescence intensity (a.u.).
For the sequence “TGTCCGGTCGTTTGAAAACTAGAAATGCTTTTCTACCCGCCGGAGTCACCTAGTGCAG”, the binding signal is 8800 fluorescence intensity (a.u.).
Regarding “GCTTTGAGCCCAACTGGATGTATTGAGCCTACGTGGGCTGCGGAGTCACCTAGTGCAG”, the binding signal was 3390 fluorescence intensity (a.u.).
With “CCGTCGCCGGCGGCGGATCGGCCCCACATCACCTCGGCCTCGGAGTCACCTAGTGCAG”, the binding signal was 3250 fluorescence intensity (a.u.).
Then “ACAACATATGGGTCCCATCTACTGACTCAACTAGTCAACCCGGAGTCACCTAGTGCAG”, with 3760 fluorescence intensity (a.u.); and “TGGCTTCACTTGCAACGGTACAAGAACCACCATCACTTCCCGGAGTCACCTAGTGCAG”, with 40100 fluorescence intensity (a.u.); and “AATCGGATTACATTGGACCACGGGACGTGTCAGATCTTTTCGGAGTCACCTAGTGCAG”, with 5650 fluorescence intensity (a.u.).
To “AAGATTAACTAAGATAGTTACGTGTAATTCTCTTGCGTGTCGGAGTCACCTAGTGCAG” belongs 3540 fluorescence intensity (a.u.); to “GACTTTAATGATGCTGACACCGGCTTAATTAGTATTGCGGCGGAGTCACCTAGTGCAG”, 3420 fluorescence intensity (a.u.).
“GTCAGAATTTGCTGCCTTGTCATCAGGATCCGCTTTGGCACGGAGTCACCTAGTGCAG”: the binding signal is 9260 fluorescence intensity (a.u.).
To “TACTTTCAACTCTAACTTGAAAACTTTCAACTTTGACTTGCGGAGTCACCTAGTGCAG” belongs 3860 fluorescence intensity (a.u.); to “ATCAATGTGGCTGCCATGGTTGCCTTGCGTGGAGGCACTACGGAGTCACCTAGTGCAG”, 3950 fluorescence intensity (a.u.).
Regarding “AACCCAACACGGCGGCGGCTGCGGGCGGTGACAATGACCACGGAGTCACCTAGTGCAG”, the binding signal is 3720 fluorescence intensity (a.u.).
Then “CCGAAACAACACACAGGTCATCCGGCCGCTCTCTTCTTTGCGGAGTCACCTAGTGCAG”, with 4620 fluorescence intensity (a.u.); and “CAGTATTAGCAGCCATCAGAAGCACCAAACAAATTTCATCCGGAGTCACCTAGTGCAG”, with 3300 fluorescence intensity (a.u.); and “TCGGCGATCCGACACGTCGCGTTGCTCTTCGCAATCGTGTCGGAGTCACCTAGTGCAG”, with 4220 fluorescence intensity (a.u.).
To “ATACGCCGAAACATTTGCACGTAATGCCTCCGTGGCGTCGCGGAGTCACCTAGTGCAG” belongs 7770 fluorescence intensity (a.u.); to “CAAACGGGCGTGGCACATCGATCGTCCGTCCGTGTTCTTGCGGAGTCACCTAGTGCAG”, 4030 fluorescence intensity (a.u.); to “CGGATTGCCACGTTGTTCAAAACCGCTCTGAATTGGTTCGCGGAGTCACCTAGTGCAG”, 6820 fluorescence intensity (a.u.).
To “CTTGTGTTCTTGATCCTGCAATTGCTGTCACACTAGCAAACGGAGTCACCTAGTGCAG” belongs 16000 fluorescence intensity (a.u.); to “CATGCCTCTCGTCACTACTCGTCAGTCGTCAGTAGCAAAGCGGAGTCACCTAGTGCAG”, 4890 fluorescence intensity (a.u.); to “CTGTTATCTTTCAATAAACCAAGGGAATTTTAGTTTGTTCCGGAGTCACCTAGTGCAG”, 33200 fluorescence intensity (a.u.).
As to “CACGCGGCGCTCCGCCTCGCCACGCGTATATGACCATATACGGAGTCACCTAGTGCAG”, the binding signal was 4080 fluorescence intensity (a.u.).
Then “CTGGTTGGCTGGTTCTTCAGGATTTGGATCTGTGGTCCTGCGGAGTCACCTAGTGCAG”, with 3280 fluorescence intensity (a.u.); and “GAGGACGCCGACGAGGCGGCCCGCTGCGGCCACGTGGCGCCGGAGTCACCTAGTGCAG”, with 23400 fluorescence intensity (a.u.).
For “ATTAGTACCTGAACACCCCATGCGATACCGTATATAATACCGGAGTCACCTAGTGCAG”, the binding signal was 5040 fluorescence intensity (a.u.).
To “CATAATTGTTTTCTGAGTAAATTTCACAAACTGCAATTGTCGGAGTCACCTAGTGCAG” belongs 20800 fluorescence intensity (a.u.); to “CACCACGCGTTCACACGGCCACGTCAGCCTACTACGCCTGCGGAGTCACCTAGTGCAG”, 23700 fluorescence intensity (a.u.); to “CTCTTATCAGGTGATGATTGTGGACTATAAACTGACCTACCGGAGTCACCTAGTGCAG”, 3900 fluorescence intensity (a.u.).
Then “GCGCTGGGAGTAGGAGCGCCGCCTGCATCTCGCTGATTGTCGGAGTCACCTAGTGCAG”, with 3400 fluorescence intensity (a.u.); and “GATTCCCAAAGCTAGGTGGGCCCCACCTGTCAGGGTCACGCGGAGTCACCTAGTGCAG”, with 3600 fluorescence intensity (a.u.).
